Experimental data: paper PMC4323006
Results are given in words; binding and its absence hold for the method and conditions named. Binding seen in cells or lysates may run through a third protein. Binding calls can cover weak binding; strength is not graded here.

By UniProt entry, the sequences of proteins in these tests, tags left out.
UniProt Q9GZT9: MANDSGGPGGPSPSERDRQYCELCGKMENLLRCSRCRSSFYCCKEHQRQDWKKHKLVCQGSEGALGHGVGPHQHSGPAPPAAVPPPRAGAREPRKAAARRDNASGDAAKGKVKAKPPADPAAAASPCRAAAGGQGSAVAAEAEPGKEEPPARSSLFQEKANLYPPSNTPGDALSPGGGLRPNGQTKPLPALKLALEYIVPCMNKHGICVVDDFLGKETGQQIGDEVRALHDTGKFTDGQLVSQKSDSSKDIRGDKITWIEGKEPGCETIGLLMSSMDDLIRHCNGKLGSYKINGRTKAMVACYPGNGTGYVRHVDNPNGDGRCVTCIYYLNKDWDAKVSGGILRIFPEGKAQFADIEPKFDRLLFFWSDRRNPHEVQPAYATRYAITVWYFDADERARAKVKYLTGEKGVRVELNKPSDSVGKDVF
UniProt Q16665: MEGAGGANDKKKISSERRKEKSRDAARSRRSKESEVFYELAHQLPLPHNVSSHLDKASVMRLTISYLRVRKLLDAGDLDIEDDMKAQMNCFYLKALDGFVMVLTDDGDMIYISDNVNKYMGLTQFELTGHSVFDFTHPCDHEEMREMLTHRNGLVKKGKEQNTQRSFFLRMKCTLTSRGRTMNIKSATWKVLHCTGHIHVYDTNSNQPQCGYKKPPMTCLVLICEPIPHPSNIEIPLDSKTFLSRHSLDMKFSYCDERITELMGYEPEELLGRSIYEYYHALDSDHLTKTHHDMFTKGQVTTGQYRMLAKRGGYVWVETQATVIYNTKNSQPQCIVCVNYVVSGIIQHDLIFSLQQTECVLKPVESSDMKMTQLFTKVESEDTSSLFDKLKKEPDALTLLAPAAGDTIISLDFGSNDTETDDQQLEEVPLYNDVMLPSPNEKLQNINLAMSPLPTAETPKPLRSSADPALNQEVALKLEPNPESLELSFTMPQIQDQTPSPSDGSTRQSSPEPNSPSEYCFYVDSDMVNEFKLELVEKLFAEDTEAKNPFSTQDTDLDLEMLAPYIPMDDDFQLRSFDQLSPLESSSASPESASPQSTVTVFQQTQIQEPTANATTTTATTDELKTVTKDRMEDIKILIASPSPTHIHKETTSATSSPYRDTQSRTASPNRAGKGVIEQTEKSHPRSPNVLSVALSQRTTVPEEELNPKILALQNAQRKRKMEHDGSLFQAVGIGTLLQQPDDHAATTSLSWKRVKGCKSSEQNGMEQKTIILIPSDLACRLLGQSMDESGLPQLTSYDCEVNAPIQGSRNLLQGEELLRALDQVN
UniProt P40337: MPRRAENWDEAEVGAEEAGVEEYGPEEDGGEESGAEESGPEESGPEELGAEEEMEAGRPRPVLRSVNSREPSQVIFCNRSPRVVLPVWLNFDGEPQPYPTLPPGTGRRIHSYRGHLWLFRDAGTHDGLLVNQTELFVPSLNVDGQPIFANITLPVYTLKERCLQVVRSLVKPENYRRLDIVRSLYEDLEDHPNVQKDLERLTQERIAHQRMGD

Tests used:
[1] = molecular target: PHD2 (HIF prolyl hydroxylase 2), transfected (UniProt Q9GZT9); experiment: co-IP; HEK293 lysates (passive-lysis buffer, gentle sonication), antibody with protein A sepharose beads, immunoblot; normoxia, many panels with MG132; some panels with co-expressed PLD1, PLD1-PH, PHD2 or VHL or with DFX; for PLD1-PH under normoxia and hypoxia
[2] = molecular target: HIF-1α (source not stated for the experiment) (UniProt Q16665); experiment: as above
[3] = molecular target: Catalytically inactive mutant PLD1 (UniProt Q13393); experiment: as above
[4] = molecular target: β-domain of VHL (HA-VHL fragment); experiment: as above
[5] = molecular target: GST-VHL β-domain fragment; experiment: pull-down; GST fusion on glutathione-sepharose 4B beads mixed with in vitro-translated protein, 4°C, 1 h, washed five times with PBS containing 1% triton-X 100; only the target purified

## Catalytically inactive mutant PLD1 (from UniProt Q13393) (enzyme)
[1]
  binding: binds
[2]
  binding: binds

## von Hippel-Lindau protein (HA-VHL), wild type (from UniProt P40337 1-213)
[3]
  binding: binds

B1: Phospholipase D1 (PLD1), wild type (enzyme, UniProt Q13393 1-1074)
chain: MSLKNEPRVNTSALQKIAADMSNIIENLDTRELHFEGEEVDYDVSPSDPKIQEVYIPFSAIYNTQGFKEPNIQTYLSGCPIKAQVLEVERFTSTTRVPSINLYTIELTHGEFKWQVKRKFKHFQEFHRELLKYKAFIRIPIPTRRHTFRRQNVREEPREMPSLPRSSENMIREEQFLGRRKQLEDYLTKILKMPMYRNYHATTEFLDISQLSFIHDLGPKGIEGMIMKRSGGHRIPGLNCCGQGRACYRWSKRWLIVKDSFLLYMKPDSGAIAFVLLVDKEFKIKVGKKETETKYGIRIDNLSRTLILKCNSYRHARWWGGAIEEFIQKHGTNFLKDHRFGSYAAIQENALAKWYVNAKGYFEDVANAMEEANEEIFITDWWLSPEIFLKRPVVEGNRWRLDCILKRKAQQGVRIFIMLYKEVELALGINSEYTKRTLMRLHPNIKVMRHPDHVSSTVYLWAHHEKLVIIDQSVAFVGGIDLAYGRWDDNEHRLTDVGSVKRVTSGPSLGSLPPAAMESMESLRLKDKNEPVQNLPIQKSIDDVDSKLKGIGKPRKFSKFSLYKQLHRHHLHDADSISSIDSTSSYFNHYRSHHNLIHGLKPHFKLFHPSSESEQGLTRPHADTGSIRSLQTGVGELHGETRFWHGKDYCNFVFKDWVQLDKPFADFIDRYSTPRMPWHDIASAVHGKAARDVARHFIQRWNFTKIMKSKYRSLSYPFLLPKSQTTAHELRYQVPGSVHANVQLLRSAADWSAGIKYHEESIHAAYVHVIENSRHYIYIENQFFISCADDKVVFNKIGDAIAQRILKAHRENQKYRVYVVIPLLPGFEGDISTGGGNALQAIMHFNYRTMCRGENSILGQLKAELGNQWINYISFCGLRTHAELEGNLVTELIYVHSKLLIADDNTVIIGSANINDRSMLGKRDSEMAVIVQDTETVPSVMDGKEYQAGRFARGLRLQCFRVVLGYLDDPSEDIQDPVSDKFFKEVWVSTAARNATIYDKVFRCLPNDEVHNLIQLRDFINKPVLAKEDPIRAEEELKKIRGFLVQFPFYFLSEESLLPSVGTKEAIVPMEVWT
[4]
  binding: binds

B2: In vitro-translated PLD1 (enzyme, UniProt Q13393 1-1074)
chain: B1 chain
[5]
  binding: binds
